Results are given in words; binding and its absence hold for the method and conditions named. In cells and extracts the contact can be indirect. Some entries that bind do so weakly or less than the wild type. One block for each molecule: values may come before it.
Legend:
[1] = target: T1, SMAR1 (scaffold/matrix attachment region-binding protein 1) (human (endogenous in MCF7)) (UniProt Q8N9N5); test: co-IP; sequential co-IP: 1 mg MCF7 nuclear extract precipitated first with 3 ug anti-SMAR1, eluate precipitated again with 2 ug anti-HDAC6, final eluate probed with anti-PTBP1
T1 sequence: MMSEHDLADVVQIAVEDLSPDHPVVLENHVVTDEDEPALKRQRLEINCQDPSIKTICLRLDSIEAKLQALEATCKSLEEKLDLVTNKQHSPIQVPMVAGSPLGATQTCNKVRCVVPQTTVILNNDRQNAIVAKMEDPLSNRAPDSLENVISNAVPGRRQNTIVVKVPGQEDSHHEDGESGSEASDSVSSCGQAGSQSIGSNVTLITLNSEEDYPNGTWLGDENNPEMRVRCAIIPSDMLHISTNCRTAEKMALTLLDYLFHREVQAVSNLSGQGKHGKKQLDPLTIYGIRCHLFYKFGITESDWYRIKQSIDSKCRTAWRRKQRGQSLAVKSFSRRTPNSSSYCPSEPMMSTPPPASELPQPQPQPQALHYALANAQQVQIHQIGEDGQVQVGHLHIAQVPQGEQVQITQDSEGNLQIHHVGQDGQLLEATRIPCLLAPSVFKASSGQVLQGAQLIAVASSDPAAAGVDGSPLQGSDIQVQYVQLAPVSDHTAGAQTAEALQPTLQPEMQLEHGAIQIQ

Sequences of proteins named here, by UniProt entry; tags and fusion partners are left off.
UniProt P26599: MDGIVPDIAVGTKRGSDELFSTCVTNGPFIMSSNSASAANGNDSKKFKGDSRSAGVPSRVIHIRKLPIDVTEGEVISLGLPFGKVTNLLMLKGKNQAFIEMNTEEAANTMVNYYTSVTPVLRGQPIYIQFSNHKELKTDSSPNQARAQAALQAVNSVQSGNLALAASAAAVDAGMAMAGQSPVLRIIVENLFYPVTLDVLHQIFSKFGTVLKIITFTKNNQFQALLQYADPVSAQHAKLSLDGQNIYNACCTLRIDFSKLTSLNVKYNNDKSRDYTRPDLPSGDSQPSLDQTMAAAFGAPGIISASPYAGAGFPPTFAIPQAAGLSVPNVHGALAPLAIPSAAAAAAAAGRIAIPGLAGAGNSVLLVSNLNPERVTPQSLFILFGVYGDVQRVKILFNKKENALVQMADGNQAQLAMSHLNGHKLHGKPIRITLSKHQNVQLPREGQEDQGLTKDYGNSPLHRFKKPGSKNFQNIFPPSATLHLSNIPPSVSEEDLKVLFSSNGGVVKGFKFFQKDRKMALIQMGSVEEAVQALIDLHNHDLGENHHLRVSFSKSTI
UniProt Q9UBN7: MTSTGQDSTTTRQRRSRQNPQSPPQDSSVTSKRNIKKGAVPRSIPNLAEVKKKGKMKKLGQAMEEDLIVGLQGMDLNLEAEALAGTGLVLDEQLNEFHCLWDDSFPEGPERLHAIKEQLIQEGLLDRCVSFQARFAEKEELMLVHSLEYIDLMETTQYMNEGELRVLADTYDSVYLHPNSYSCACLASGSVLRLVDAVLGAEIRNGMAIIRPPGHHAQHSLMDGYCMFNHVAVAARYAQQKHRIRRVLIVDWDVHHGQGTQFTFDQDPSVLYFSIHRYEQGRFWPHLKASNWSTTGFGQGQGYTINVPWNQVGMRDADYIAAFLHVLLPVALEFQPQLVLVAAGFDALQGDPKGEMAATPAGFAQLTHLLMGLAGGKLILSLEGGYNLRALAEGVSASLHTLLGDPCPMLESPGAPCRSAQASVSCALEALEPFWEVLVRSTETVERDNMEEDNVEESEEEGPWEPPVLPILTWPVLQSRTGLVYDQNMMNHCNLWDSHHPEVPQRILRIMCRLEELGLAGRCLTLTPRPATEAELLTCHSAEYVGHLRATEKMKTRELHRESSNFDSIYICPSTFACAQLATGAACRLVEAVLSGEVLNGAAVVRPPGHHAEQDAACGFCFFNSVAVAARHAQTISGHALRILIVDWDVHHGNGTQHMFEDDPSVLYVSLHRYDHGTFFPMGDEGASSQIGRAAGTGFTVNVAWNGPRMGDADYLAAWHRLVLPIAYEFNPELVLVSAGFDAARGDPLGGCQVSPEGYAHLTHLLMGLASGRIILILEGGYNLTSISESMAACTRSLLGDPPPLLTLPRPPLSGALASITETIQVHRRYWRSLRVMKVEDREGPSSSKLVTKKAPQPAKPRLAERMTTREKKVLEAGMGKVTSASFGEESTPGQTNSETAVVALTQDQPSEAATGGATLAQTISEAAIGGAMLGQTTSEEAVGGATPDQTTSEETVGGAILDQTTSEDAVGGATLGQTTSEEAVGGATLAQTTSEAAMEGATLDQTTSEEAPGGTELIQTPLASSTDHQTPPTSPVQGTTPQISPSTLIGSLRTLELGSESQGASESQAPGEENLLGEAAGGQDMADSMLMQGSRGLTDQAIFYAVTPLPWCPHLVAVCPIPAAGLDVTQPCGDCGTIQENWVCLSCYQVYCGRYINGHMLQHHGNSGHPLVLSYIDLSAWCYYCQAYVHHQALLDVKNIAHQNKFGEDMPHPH

[2] = target: T1, SMAR1 (scaffold/matrix attachment region-binding protein 1) (human (endogenous in MCF7)); test: co-IP; 500 ug MCF7 nuclear extract, pre-cleared with normal IgG Dynabeads G, 12 h at 4 C with antibody cross-linked (DMP) to Dynabeads G; washed in IP buffer (1x PBS, 0.1% NP-40); eluates blotted
[3] = target: PTBP1 (polypyrimidine tract-binding protein 1) (human (endogenous in MCF7)) (UniProt P26599); test: as above
[4] = target: HDAC6 (histone deacetylase 6) (human (endogenous in MCF7)) (UniProt Q9UBN7); test: co-IP; sequential co-IP: 1 mg MCF7 nuclear extract precipitated first with 3 ug anti-SMAR1, eluate precipitated again with 2 ug anti-HDAC6, final eluate probed with anti-PTBP1
[5] = target: HDAC6 (histone deacetylase 6) (human (endogenous in MCF7)) (UniProt Q9UBN7); test: co-IP; 500 ug MCF7 nuclear extract, pre-cleared with normal IgG Dynabeads G, 12 h at 4 C with antibody cross-linked (DMP) to Dynabeads G; washed in IP buffer (1x PBS, 0.1% NP-40); eluates blotted

binding [1]: binds
binding [2]: binds
binding [3]: binds
Molecule: HDAC6 (histone deacetylase 6) (from UniProt Q9UBN7 1-1215) (enzyme)

binding [1]: binds
binding [4]: binds
binding [2]: binds
binding [5]: binds
Molecule: PTBP1 (polypyrimidine tract-binding protein 1) (from UniProt P26599 1-557)

binding [5]: binds
binding [3]: binds
B1: SMAR1 (scaffold/matrix attachment region-binding protein 1) (protein, UniProt Q8N9N5 1-519)
chain: T1 sequence

Source: article PMC8052847
